Data as given in PubChem BioAssay AID504774 (Drosophila RNAi Screening Center, 2011).
In all, the deposit lists about 23,000 reagents; shown is an unselected part of those that have a named target and a result. 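Values are quantile-normalised luminescence on an arbitrary scale; higher means more cells surviving MMS.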 A plus sign joins genes that one reagent is predicted to hit. Further read-outs or replicates are left out here.

- Purpose: 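Fly genes whose loss alters survival after alkylation damage to DNA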 (primary screen)
- Cell system: Drosophila Kc167 cells
- Reagent: long dsRNA against Drosophila genes, about 0.25 µg dsRNA per well
- Time to read-out: about 6 days: 3 days knock-down, then 3 days with or without MMS
- Conditions: methyl methanesulphonate 0.004% (w/v) for 3 days after knock-down
- Detection: 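Viability in wells given MMS, read as ATP luminescence, normalised by quantiles plate by plate and averaged across replicates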
- Scale: mean viability with MMS: higher = more surviving cells after MMS

mean viability with MMS, by target gene and reagent
Coq3 (Coenzyme Q3): DRSC03168 3.51e6
betaNACtes2 (Nascent-associated complex beta-subunit-like, testis 2): DRSC19792 3.67e6
CG5516: DRSC15826 3.61e6; DRSC21753 3.36e6
CG17782: DRSC15267 3.63e6; DRSC23227 3.80e6
CG15353: DRSC00383 3.52e6
lectin-37Db: DRSC03279 3.58e6
CG33476: DRSC22888 3.38e6
Ae2 (Anion exchanger 2): DRSC08997 1.67e6; DRSC10969 3.47e6
alpha-PheRS (Phenylalanyl-tRNA synthetase, alpha-subunit): DRSC18224 3.34e6
bero (belly roll): DRSC03211 3.74e6
CG16952: DRSC19759 3.53e6
CG14204: DRSC19559 3.46e6
mrn (marionette): DRSC10913 3.38e6
Mad1 (Mitotic arrest-deficient 1): DRSC07561 3.72e6
CG6686: DRSC02979 3.16e6
CG4390: DRSC15572 3.47e6
CG34167: DRSC01525 3.52e6
lectin-28C: DRSC03010 3.61e6
CG13196: DRSC06321 3.63e6
Sec71 (Secretory 71): DRSC01893 3.90e6
CG5892: DRSC15910 3.63e6
CG9098: DRSC03136 3.74e6; DRSC22501 3.65e6
ct (cut): DRSC18757 2.75e6
Lam (Lamin): DRSC03359 3.15e6
Ada1-1 + Ada1-2: DRSC01220 3.38e6; DRSC01222 3.38e6
RpL35A (Ribosomal protein L35A): DRSC12302 3.15e6
CG5418: DRSC02857 3.59e6
Ctr9: DRSC08562 3.49e6
CG1662: DRSC19754 3.57e6
CG3119: DRSC00569 3.34e6
Prx2 (Peroxiredoxin 2): DRSC20256 3.41e6
MESR4 (Misexpression suppressor of ras 4): DRSC06901 3.09e6
spz5 (spatzle 5): DRSC08645 3.29e6
CG14050: DRSC18594 3.47e6
rut (rutabaga): DRSC20367 2.70e6; DRSC22976 2.43e6
ergic53: DRSC11389 3.62e6
CG17328: DRSC01927 3.44e6; DRSC22448 3.73e6
Edg84A (Ecdysone-dependent gene 84A): DRSC12594 3.61e6
CG14232: DRSC19588 3.66e6
CG34348: DRSC19425 3.57e6; DRSC19644 3.49e6
Brr2 (Brr2 U5 snRNP complex subunit): DRSC10559 3.27e6
Nipsnap: DRSC20169 3.46e6
Vps11 (Vacuolar protein sorting 11): DRSC11909 3.32e6; DRSC21579 3.39e6
CG11035: DRSC14287 3.74e6
SmE (Small ribonucleoprotein particle protein SmE): DRSC02680 3.11e6
eIF2beta (eukaryotic translation initiation factor 2 subunit beta): DRSC11341 3.18e6
SA1 (Stromalin 1): DRSC03424 3.47e6
Osi8 (Osiris 8): DRSC12277 3.44e6
cer (crammer): DRSC05992 3.62e6
CG31544 (retired record): DRSC12466 3.48e6
PIG-Q (Phosphatidylinositol glycan anchor biosynthesis class Q): DRSC19138 3.51e6
E23 (Early gene at 23): DRSC00425 2.67e6; DRSC00593 3.42e6
alpha-Est1 (alpha-Esterase-1): DRSC12612 3.41e6
CG13581: DRSC04216 3.59e6
Met75Ca + Met75Cb: DRSC09549 3.61e6; DRSC11221 3.54e6
CG6749: DRSC10704 3.60e6
Nrx-1 (Neurexin 1): DRSC16184 3.64e6
CG9316: DRSC03195 3.52e6
Klp67A (Kinesin-like protein at 67A): DRSC11205 3.39e6
CG3735: DRSC04411 3.45e6
betaTub60D (beta-Tubulin at 60D): DRSC04673 3.72e6; DRSC22218 3.61e6
CG15404: DRSC00418 3.59e6
CG4476: DRSC10424 3.34e6
CG3907: DRSC04432 3.42e6
CG7966: DRSC16356 3.62e6
fabp + sea: DRSC16114 3.39e6; DRSC16115 3.53e6
CG33127: DRSC00011 3.68e6
Taz (Tafazzin): DRSC07704 3.90e6; DRSC22625 3.46e6
CG18599: DRSC15357 3.53e6; DRSC22585 2.42e6; DRSC23121 3.58e6
CG32006: DRSC21768 3.14e6
metro (menage a trois): DRSC06341 3.52e6; DRSC06725 3.45e6

Targets above whose target name begins with F or f:
mean viability with MMS, by target gene and reagent
fabp + sea: DRSC16114 3.39e6; DRSC16115 3.53e6
